PubChem BioAssay AID1224828 – NIAID – 2016
Screen: 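Regulators linking TLR4 signalling to p65 nuclear translocation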 (primary screen). Cell system: mouse RAW264.7 G9 macrophage reporter cells (GFP-p65, Tnf promoter-mCherry). Reagents: siRNA pool against mouse genes, 100 nM. Duration: 2 days siRNA transfection, then 40 min LPS before fixation. Challenge: LPS (Salmonella minnesota R595) at 10 ng/ml. Measured: 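Imaged p65 nuclear translocation ratio, normalised to the plate median, converted to robust z-scores and averaged across two replicates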. Direction: p65 translocation robust z-score: higher = more nuclear NF-kappaB p65 after LPS than the plate median; nuclear/cytoplasmic p65 ratio: higher = more nuclear NF-kappaB p65. Call rule: 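Active if robust z is above 3.3 (negative regulators) or below -1.56, the Tlr4 control median (positive regulators); activity score 50 or more; control wells not called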. Calls: active = hit (p65 shift raised or lowered); inactive = no clear change.
Here is a random part of about 17,000 deposited reagents. 762 of all reagents (4.5%) count as active. 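Active calls include both raised and lowered p65 entry, mostly lowered; wells with fewer than 50 cells lack a z-score.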 Raw values vary from plate to plate and are shown uncorrected. Entries without a mark were called inactive.

| Target gene | p65 translocation robust z-score | nuclear/cytoplasmic p65 ratio, rep 1 | nuclear/cytoplasmic p65 ratio, rep 2 | low cell count flag |
| --- | --- | --- | --- | --- |
| Cep131 | -0.23 | 1.57 | 1.48 | enough cells to score |
| Spidr | – | 1.43 | 1.69 | fewer than 50 cells per well; well left out of scoring |
| Arhgef17 | -0.14 | 1.58 | 1.62 | enough cells to score |
| Prpf40b | 1.24 | 1.89 | 1.71 | enough cells to score |
| Recql4 | -0.57 | 1.45 | 1.67 | enough cells to score |
| Med20 | -0.01 | 1.42 | 1.2 | enough cells to score |
| 4933409G03Rik | – | 1.35 | 1.57 | fewer than 50 cells per well; well left out of scoring |
| Pex5 | 0.92 | 1.54 | 1.56 | enough cells to score |
| Gins3 | 0.84 | 1.45 | 1.64 | enough cells to score |
| Aldh7a1 | -0.19 | 1.62 | 1.56 | enough cells to score |
| Jade2 | -0.69 | 1.34 | 1.17 | enough cells to score |
| Ube2b | 0.92 | 1.65 | 1.62 | enough cells to score |
| Rab33a | -0.28 | 1.5 | 1.46 | enough cells to score |
| Kcnab2 | 0.36 | 1.49 | 1.46 | enough cells to score |
| Gdf2 | 0.16 | 1.43 | 1.41 | enough cells to score |
| F2rl2 | – | 1.67 | 1.6 | fewer than 50 cells per well; well left out of scoring |
| Or10g9b | 0.21 | 1.48 | 1.26 | enough cells to score |
| Havcr1 | -0.1 | 1.32 | 1.46 | enough cells to score |
| Hoxb9 | 0.7 | 1.83 | 1.57 | enough cells to score |
| Akip1 | – | 1.45 | 1.21 | fewer than 50 cells per well; well left out of scoring |
| Lce1a1 | 0.29 | 1.44 | 1.28 | enough cells to score |
| Wdr3 | -0.06 | 1.55 | 1.56 | enough cells to score |
| Tbl1x | -0.81 | 1.45 | 1.36 | enough cells to score |
| Clec4a2 | -0.26 | 1.58 | 1.71 | enough cells to score |
| Gml2 | -0.29 | 1.27 | 1.52 | enough cells to score |
| Fam111a | – | 1.36 | 1.08 | fewer than 50 cells per well; well left out of scoring |
| Shroom1 | – | 1.56 | 1.49 | fewer than 50 cells per well; well left out of scoring |
| Itih1 | -0.87 | 1.42 | 1.28 | enough cells to score |
| Smagp | 0 | 1.62 | 1.8 | enough cells to score |
| Rwdd1 | – | 1.6 | 1.13 | fewer than 50 cells per well; well left out of scoring |
| Mta2 | -0.44 | 1.32 | 1.35 | enough cells to score |
| Or8k24 | 1.97 | 2.01 | 1.82 | enough cells to score |
| C730034F03Rik | 2.83 | 2.01 | 2.25 | enough cells to score |
| Kctd7 | -0.41 | 1.38 | 1.39 | enough cells to score |
| Kpna6 | 0.06 | 1.49 | 1.38 | enough cells to score |
| Amigo2 | -0.11 | 1.49 | 1.77 | enough cells to score |
| Mc3r | -0.32 | 1.45 | 1.55 | enough cells to score |
| Slc26a2 | 0.37 | 1.59 | 1.55 | enough cells to score |
| Rhoa | 1.48 | 1.77 | 1.68 | enough cells to score |
| Or5w8 | -1.2 | 1.54 | 1.34 | enough cells to score |
| Tspan33 | -0.64 | 1.49 | 1.32 | enough cells to score |
| Mbd3l1 | 0.25 | 1.43 | 1.42 | enough cells to score |
| Gpr12 | -0.5 | 1.44 | 1.5 | enough cells to score |
| Csf3 | -0.08 | 1.17 | 1.35 | enough cells to score |
| A730045E13Rik | -0.38 | 1.35 | 1.47 | enough cells to score |
| Cypt3 | 2.9 | 2.02 | 1.55 | enough cells to score |
| Rpa2 | 0.1 | 1.54 | 1.14 | enough cells to score |
| Pkp2 | -1.01 | 1.38 | 1.54 | enough cells to score |
| Ca2 | -0.34 | 1.54 | 1.59 | enough cells to score |
| Nkapl | – | 1.05 | 1.11 | fewer than 50 cells per well; well left out of scoring |
| Clca3a1 | -0.93 | 1.41 | 1.68 | enough cells to score |
| Cox5a | 0.61 | 1.67 | 1.87 | enough cells to score |
| Ebf1 | 1.16 | 1.46 | 1.51 | enough cells to score |
| Kif24 | 1.55 | 1.68 | 1.72 | enough cells to score |
| Ppp4r3a | -0.38 | 1.52 | 1.36 | enough cells to score |
| Meig1 | 1.29 | 1.91 | 1.74 | enough cells to score |
| Or10d1c | 0.62 | 1.58 | 1.27 | enough cells to score |
| Vmn1r66 | 1.39 | 1.53 | 1.41 | enough cells to score |
| Furin | 0.71 | 1.49 | 1.5 | enough cells to score |

An excerpt taken from the entries so far, for reference:
| Target gene | p65 translocation robust z-score | nuclear/cytoplasmic p65 ratio, rep 1 | nuclear/cytoplasmic p65 ratio, rep 2 | low cell count flag |
| --- | --- | --- | --- | --- |
| Rab33a | -0.28 | 1.5 | 1.46 | enough cells to score |
| Kcnab2 | 0.36 | 1.49 | 1.46 | enough cells to score |
| Gdf2 | 0.16 | 1.43 | 1.41 | enough cells to score |
| F2rl2 | – | 1.67 | 1.6 | fewer than 50 cells per well; well left out of scoring |
| Or10g9b | 0.21 | 1.48 | 1.26 | enough cells to score |
| Havcr1 | -0.1 | 1.32 | 1.46 | enough cells to score |
